Some of the results follow.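 The calls were made as follows: active = dose-dependent thermal stabilisation significant by F-test of dose-response against flat model at 10% FDR; inactive = not significant.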
Compound: Nc1nc2c(ncn2[C@@H]2O[C@H](COP(=O)(O)OP(=O)(O)OP(=O)(O)O)[C@@H](O)[C@H]2O)c(=O)[nH]1
Test: dose-dependent thermal stabilisation call (2D-TPP, DLPTP, 10% FDR) (binary (1 = stabilised)); higher = stabilised by the compound
Conditions: system: Jurkat gel-filtered lysate; concentration range 1-500 µM

Protein sequences, listed by entry. Tags and fused reporters are not part of them. Lines headed by an entry give the natural chain unless they say otherwise; changes in a name come on top.
UniProt Q92859: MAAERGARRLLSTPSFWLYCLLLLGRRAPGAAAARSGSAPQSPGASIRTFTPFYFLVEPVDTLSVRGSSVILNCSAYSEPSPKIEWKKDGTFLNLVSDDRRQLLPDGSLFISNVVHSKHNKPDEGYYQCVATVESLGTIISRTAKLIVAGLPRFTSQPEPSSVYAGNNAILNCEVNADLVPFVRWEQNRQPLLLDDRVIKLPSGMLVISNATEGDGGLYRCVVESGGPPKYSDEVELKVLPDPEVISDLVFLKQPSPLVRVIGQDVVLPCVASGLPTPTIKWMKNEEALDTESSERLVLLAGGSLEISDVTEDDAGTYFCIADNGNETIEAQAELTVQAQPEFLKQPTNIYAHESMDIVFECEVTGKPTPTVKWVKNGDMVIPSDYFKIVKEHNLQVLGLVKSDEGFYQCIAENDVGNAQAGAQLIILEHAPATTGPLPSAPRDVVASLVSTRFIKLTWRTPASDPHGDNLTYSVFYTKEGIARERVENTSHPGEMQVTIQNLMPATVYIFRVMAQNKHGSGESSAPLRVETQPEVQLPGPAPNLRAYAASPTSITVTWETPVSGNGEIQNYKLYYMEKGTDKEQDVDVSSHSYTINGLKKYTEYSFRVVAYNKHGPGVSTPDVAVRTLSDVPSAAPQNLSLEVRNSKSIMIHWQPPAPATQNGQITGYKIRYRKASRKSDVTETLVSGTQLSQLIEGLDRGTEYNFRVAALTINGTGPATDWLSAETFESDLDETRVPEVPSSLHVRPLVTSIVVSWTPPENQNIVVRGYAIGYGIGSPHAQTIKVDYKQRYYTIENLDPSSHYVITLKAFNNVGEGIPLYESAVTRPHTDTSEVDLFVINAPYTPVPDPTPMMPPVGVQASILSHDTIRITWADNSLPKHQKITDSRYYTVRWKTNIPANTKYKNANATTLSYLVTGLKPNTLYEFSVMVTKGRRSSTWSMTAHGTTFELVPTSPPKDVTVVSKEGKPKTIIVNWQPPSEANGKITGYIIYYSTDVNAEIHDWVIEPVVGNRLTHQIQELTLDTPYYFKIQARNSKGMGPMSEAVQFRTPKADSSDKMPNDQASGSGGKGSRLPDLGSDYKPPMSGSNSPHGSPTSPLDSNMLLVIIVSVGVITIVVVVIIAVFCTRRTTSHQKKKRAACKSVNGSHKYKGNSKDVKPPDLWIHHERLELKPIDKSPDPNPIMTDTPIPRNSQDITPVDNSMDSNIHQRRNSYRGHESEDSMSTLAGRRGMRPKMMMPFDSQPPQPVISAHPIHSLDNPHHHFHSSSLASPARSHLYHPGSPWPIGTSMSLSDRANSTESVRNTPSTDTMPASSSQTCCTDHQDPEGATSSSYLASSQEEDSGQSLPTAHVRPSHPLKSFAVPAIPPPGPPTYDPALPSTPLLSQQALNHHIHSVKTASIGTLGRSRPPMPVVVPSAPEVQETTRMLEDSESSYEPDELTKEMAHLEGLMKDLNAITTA
UniProt Q96SU4: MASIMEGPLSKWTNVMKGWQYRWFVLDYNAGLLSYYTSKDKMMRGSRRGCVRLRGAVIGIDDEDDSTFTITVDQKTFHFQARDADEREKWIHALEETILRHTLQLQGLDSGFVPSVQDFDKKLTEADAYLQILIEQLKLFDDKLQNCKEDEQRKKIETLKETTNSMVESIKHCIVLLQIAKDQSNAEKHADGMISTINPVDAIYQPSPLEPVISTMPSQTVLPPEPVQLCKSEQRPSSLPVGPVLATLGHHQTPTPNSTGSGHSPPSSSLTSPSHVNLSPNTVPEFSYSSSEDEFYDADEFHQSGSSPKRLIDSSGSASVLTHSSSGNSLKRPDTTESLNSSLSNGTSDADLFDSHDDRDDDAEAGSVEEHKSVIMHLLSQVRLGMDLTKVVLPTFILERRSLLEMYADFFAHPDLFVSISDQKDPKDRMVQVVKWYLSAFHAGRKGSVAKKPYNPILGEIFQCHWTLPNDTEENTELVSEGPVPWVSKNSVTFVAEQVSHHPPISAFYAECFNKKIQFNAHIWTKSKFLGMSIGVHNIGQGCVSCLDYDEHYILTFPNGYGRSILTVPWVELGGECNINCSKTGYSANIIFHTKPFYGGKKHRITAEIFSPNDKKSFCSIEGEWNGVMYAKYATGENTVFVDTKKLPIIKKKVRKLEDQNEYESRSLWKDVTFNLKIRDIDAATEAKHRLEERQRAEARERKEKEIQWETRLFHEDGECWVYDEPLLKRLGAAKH
UniProt Q15233: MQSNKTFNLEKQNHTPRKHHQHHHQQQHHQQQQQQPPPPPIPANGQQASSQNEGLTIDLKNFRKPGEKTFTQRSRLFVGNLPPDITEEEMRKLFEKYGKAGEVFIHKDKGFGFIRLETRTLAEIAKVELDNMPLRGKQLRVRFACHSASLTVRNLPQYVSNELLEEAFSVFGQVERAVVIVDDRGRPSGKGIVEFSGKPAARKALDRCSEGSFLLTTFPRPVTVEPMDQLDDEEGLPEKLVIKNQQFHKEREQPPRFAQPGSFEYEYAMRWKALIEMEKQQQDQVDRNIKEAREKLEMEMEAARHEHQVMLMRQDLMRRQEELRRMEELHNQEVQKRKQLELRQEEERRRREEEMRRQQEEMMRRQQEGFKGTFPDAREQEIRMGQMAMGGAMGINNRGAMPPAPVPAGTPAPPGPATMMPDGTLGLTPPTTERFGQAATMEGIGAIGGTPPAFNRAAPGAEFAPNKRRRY
UniProt Q8TEW0: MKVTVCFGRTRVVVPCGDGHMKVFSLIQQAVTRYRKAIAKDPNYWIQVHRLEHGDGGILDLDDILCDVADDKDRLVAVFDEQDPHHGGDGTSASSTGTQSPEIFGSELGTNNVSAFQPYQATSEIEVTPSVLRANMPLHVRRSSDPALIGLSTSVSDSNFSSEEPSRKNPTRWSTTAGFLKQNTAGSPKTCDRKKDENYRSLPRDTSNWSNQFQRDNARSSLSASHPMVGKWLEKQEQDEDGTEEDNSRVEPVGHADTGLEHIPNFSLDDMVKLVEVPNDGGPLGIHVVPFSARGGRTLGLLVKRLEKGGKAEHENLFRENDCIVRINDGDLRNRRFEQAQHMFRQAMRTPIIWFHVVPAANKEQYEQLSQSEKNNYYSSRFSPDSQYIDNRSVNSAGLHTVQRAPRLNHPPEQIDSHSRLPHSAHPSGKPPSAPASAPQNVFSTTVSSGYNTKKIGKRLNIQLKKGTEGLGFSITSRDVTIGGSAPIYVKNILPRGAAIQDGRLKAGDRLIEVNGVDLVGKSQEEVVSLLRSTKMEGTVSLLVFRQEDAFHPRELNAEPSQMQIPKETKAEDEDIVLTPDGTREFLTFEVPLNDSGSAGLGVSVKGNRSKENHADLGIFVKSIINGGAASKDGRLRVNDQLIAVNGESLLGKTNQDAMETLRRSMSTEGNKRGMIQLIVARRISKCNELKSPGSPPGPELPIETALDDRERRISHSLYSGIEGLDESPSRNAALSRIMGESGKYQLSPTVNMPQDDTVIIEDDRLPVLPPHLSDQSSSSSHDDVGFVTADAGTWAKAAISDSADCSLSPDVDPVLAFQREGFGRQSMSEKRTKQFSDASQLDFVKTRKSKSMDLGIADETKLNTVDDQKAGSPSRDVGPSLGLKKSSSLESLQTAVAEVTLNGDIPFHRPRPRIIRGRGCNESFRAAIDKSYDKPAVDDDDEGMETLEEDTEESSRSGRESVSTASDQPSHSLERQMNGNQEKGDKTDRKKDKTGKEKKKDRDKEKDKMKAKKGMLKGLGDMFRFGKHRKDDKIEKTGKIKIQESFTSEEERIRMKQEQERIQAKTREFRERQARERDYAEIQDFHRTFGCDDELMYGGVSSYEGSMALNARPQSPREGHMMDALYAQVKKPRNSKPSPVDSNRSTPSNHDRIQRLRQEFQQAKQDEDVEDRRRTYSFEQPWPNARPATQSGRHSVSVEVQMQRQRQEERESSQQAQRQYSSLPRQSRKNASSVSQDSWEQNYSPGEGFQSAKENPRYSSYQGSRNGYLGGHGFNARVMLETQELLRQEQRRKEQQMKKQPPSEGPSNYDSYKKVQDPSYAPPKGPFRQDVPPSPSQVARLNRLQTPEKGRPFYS
UniProt O95848: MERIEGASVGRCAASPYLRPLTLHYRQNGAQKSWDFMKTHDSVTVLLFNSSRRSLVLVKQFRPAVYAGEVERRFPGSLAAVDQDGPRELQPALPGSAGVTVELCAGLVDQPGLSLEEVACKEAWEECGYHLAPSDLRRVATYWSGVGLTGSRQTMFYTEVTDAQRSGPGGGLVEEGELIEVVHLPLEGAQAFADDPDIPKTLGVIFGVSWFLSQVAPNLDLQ
UniProt Q96DC9: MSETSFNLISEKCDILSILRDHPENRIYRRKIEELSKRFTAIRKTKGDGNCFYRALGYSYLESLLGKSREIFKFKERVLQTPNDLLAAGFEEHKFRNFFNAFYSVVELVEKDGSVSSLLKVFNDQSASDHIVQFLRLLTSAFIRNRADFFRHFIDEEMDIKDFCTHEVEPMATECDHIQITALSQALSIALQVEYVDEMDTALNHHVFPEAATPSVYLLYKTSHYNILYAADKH
UniProt Q9H999: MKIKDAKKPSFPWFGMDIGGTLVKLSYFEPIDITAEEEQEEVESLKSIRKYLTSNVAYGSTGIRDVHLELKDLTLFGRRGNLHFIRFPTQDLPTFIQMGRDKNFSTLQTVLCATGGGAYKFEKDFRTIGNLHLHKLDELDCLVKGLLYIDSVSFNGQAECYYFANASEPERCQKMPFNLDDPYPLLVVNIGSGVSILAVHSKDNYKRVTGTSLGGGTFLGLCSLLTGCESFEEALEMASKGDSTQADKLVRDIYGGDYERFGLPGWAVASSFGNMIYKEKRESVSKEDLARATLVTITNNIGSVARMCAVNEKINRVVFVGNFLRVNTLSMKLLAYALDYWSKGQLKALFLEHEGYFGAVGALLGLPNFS
UniProt Q99567: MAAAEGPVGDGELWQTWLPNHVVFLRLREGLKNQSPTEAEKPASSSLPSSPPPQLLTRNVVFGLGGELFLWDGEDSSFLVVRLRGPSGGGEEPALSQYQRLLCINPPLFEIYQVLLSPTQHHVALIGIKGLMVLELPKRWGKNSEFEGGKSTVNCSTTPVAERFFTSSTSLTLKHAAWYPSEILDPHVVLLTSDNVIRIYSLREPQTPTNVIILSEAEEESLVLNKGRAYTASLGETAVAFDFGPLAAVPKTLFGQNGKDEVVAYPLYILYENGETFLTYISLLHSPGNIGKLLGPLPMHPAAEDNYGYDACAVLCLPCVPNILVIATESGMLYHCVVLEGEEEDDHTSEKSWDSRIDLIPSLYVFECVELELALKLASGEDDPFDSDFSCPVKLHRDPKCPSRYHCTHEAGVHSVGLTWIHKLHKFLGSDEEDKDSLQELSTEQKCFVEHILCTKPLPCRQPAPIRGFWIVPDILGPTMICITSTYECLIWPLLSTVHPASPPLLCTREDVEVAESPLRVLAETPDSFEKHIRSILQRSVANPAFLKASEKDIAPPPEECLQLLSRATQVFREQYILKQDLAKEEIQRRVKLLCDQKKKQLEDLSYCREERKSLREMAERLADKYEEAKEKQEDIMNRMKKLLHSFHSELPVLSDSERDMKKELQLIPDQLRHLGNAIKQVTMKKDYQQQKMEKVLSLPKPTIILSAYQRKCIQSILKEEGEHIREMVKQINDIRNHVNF
UniProt Q86X76: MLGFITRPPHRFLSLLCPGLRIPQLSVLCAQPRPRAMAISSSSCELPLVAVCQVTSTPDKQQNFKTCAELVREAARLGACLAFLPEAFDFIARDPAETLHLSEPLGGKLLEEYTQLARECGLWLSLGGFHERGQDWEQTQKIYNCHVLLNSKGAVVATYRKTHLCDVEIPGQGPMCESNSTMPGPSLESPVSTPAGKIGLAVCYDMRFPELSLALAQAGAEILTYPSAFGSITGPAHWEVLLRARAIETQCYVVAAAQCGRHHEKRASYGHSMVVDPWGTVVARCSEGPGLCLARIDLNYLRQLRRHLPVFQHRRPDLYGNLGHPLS
UniProt Q8NHV4, whole entry: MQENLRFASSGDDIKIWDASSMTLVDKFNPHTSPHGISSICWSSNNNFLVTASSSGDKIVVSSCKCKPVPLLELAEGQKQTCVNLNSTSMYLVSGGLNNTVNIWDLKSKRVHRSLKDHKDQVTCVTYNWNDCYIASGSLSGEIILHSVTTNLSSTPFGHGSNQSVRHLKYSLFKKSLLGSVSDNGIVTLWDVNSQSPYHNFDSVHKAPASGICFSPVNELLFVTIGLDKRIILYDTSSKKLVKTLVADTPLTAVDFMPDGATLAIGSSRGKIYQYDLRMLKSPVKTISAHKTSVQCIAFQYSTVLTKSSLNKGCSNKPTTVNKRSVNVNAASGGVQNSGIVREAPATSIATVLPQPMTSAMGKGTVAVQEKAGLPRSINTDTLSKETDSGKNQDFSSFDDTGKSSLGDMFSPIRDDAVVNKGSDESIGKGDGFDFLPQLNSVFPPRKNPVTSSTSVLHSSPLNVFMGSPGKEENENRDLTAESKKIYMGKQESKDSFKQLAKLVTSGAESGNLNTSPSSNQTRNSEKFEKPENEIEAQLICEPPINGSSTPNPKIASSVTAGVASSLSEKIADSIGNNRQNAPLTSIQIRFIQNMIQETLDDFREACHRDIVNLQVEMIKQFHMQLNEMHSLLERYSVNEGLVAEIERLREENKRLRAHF

Target | dose-dependent thermal stabilisation call
PAIP2 (UniProt Q9BPZ3) | inactive: 0
NOP2 (UniProt P46087) | inactive: 0
NEO1 (UniProt Q92859) | inactive: 0
NOTCH3 (UniProt Q9UM47) | inactive: 0
OSBPL9 (UniProt Q96SU4) | inactive: 0
NIF3L1 (UniProt Q9GZT8) | inactive: 0
NPEPPS (UniProt P55786) | inactive: 0
NUP98 (UniProt P52948) | inactive: 0
NBEA (UniProt Q8NFP9) | inactive: 0
PACSIN2 (UniProt Q9UNF0) | inactive: 0
NADSYN1 (UniProt Q6IA69) | inactive: 0
NUDT11 (UniProt Q96G61) | inactive: 0
NCS1 (UniProt P62166) | inactive: 0
NAP1L1 (UniProt P55209) | inactive: 0
NUFIP2 (UniProt Q7Z417) | inactive: 0
NCBP2 (UniProt P52298) | inactive: 0
NTAN1 (UniProt Q96AB6) | inactive: 0
NONO (UniProt Q15233) | inactive: 0
NAAA (UniProt Q02083) | inactive: 0
NSUN2 (UniProt Q08J23) | active: 1
NAP1L4 (UniProt Q99733) | inactive: 0
NT5DC2 (UniProt Q9H857) | inactive: 0
NBN (UniProt O60934) | inactive: 0
NR3C1 (UniProt P04150) | inactive: 0

Target | dose-dependent thermal stabilisation call
NEMF (UniProt O60524) | active: 1
NFKB1 (UniProt P19838) | active: 1
NUMB (UniProt P49757) | active: 1
NCOA6 (UniProt Q14686) | inactive: 0
NT5DC1 (UniProt Q5TFE4) | inactive: 0
NCBP1 (UniProt Q09161) | active: 1
NSRP1 (UniProt Q9H0G5) | inactive: 0
PARD3 (UniProt Q8TEW0) | inactive: 0
NUDT5 (UniProt Q9UKK9) | inactive: 0
NUDT18 (UniProt Q6ZVK8) | inactive: 0
NT5C3B (UniProt Q969T7) | inactive: 0
OSCP1 (UniProt Q8WVF1) | inactive: 0
NQO1 (UniProt P15559) | active: 1
NUDT14 (UniProt O95848) | inactive: 0
NDUFA2 (UniProt O43678) | inactive: 0
NCAPH2 (UniProt Q6IBW4) | active: 1
OGFR (UniProt Q9NZT2) | inactive: 0
OTUD5 (UniProt Q96G74) | inactive: 0
ERCC6 (UniProt P0DP91) | inactive: 0
NCKAP1L (UniProt P55160) | inactive: 0
PALLD (UniProt Q8WX93) | active: 1
NUP133 (UniProt Q8WUM0) | inactive: 0
PAIP1 (UniProt Q9H074) | inactive: 0
NASP (UniProt P49321) | inactive: 0

Six records drawn at random from the list so far:
Target | dose-dependent thermal stabilisation call
OGFR (UniProt Q9NZT2) | inactive: 0
NCOA6 (UniProt Q14686) | inactive: 0
ERCC6 (UniProt P0DP91) | inactive: 0
NCAPH2 (UniProt Q6IBW4) | active: 1
NUDT18 (UniProt Q6ZVK8) | inactive: 0
NCBP1 (UniProt Q09161) | active: 1

Going on with the list:

Target | dose-dependent thermal stabilisation call
NDRG2 (UniProt Q9UN36) | inactive: 0
OTUB2 (UniProt Q96DC9) | inactive: 0
NCK1 (UniProt P16333) | inactive: 0
NUP85 (UniProt Q9BW27) | inactive: 0
NMI (UniProt Q13287) | inactive: 0
PANK3 (UniProt Q9H999) | active: 1
PARP1 (UniProt P09874) | inactive: 0
NAA25 (UniProt Q14CX7) | inactive: 0
NUDT2 (UniProt P50583) | active: 1
NUSAP1 (UniProt Q9BXS6) | inactive: 0
NFYA (UniProt P23511) | inactive: 0
NLN (UniProt Q9BYT8) | inactive: 0
NUP88 (UniProt Q99567) | active: 1
NCK2 (UniProt O43639) | inactive: 0
OPLAH (UniProt O14841) | inactive: 0
OARD1 (UniProt Q9Y530) | inactive: 0
NOVA1 (UniProt P51513) | inactive: 0
NIT1 (UniProt Q86X76) | inactive: 0
NEDD1 (UniProt Q8NHV4) | inactive: 0
PALB2 (UniProt Q86YC2) | inactive: 0
PAK2 (UniProt Q13177) | inactive: 0
NCSTN (UniProt Q92542) | inactive: 0
OVCA2 (UniProt Q8WZ82) | active: 1
NAA16 (UniProt Q6N069) | active: 1

— the supplement of paper PMC7666118
